This is a selection; strong and weak results do not stand in their true shares.
What follows are targets tested with COC(=O)C#Cc1ccccc1 [methyl 3-phenylpropiolate] (assay: log2 ratio of iodoacetamide-alkyne labeling of the cysteine site, DMSO over compound (competition); higher = stronger covalent engagement of the cysteine by the compound, active = 1 or more). Conditions: 500 µM; treatment time 1 h; system: HEK293T cell lysate.
Outline: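 HEK293T lysate at 2 mg/mL was treated with vehicle or electrophile (500 µM) for 1 h at ambient temperature, then labelled with iodoacetamide alkyne (1 h), clicked to sCIP-TMT reagents, pooled, digested with trypsin overnight at 37 °C, enriched on streptavidin and eluted with acid. Peptides were analysed by Orbitrap Eclipse LC-MS/MS with FAIMS and quantified in FragPipe, using duplicate channels and three replicates, with cysteines quantified in only one replicate excluded. The log2 competition ratio for each cysteine is the mean control-channel reporter intensity divided by the mean compound-channel reporter intensity.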

The chains behind the UniProt entries cited, without tags or fusion partners. Where a name states a change or a piece, a line headed by the entry shows the natural chain unless it says otherwise.
UniProt Q8IYB1: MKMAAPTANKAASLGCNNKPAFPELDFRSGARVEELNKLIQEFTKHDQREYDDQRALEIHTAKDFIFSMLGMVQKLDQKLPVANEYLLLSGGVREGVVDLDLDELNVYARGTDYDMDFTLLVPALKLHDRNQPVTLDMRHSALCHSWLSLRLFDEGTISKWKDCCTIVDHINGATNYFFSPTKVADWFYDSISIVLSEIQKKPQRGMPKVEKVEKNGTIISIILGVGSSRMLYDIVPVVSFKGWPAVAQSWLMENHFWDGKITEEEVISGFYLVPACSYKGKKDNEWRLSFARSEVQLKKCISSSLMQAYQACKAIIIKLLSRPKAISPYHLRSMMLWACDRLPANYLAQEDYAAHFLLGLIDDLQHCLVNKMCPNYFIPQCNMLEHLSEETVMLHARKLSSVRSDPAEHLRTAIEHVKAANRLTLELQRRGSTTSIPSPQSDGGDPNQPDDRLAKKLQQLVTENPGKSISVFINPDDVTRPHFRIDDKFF
UniProt Q7RTV0, whole entry, looked up: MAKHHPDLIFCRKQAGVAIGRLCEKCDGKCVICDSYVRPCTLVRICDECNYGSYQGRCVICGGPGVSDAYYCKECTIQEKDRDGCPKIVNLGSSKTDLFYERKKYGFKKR
UniProt Q71F56: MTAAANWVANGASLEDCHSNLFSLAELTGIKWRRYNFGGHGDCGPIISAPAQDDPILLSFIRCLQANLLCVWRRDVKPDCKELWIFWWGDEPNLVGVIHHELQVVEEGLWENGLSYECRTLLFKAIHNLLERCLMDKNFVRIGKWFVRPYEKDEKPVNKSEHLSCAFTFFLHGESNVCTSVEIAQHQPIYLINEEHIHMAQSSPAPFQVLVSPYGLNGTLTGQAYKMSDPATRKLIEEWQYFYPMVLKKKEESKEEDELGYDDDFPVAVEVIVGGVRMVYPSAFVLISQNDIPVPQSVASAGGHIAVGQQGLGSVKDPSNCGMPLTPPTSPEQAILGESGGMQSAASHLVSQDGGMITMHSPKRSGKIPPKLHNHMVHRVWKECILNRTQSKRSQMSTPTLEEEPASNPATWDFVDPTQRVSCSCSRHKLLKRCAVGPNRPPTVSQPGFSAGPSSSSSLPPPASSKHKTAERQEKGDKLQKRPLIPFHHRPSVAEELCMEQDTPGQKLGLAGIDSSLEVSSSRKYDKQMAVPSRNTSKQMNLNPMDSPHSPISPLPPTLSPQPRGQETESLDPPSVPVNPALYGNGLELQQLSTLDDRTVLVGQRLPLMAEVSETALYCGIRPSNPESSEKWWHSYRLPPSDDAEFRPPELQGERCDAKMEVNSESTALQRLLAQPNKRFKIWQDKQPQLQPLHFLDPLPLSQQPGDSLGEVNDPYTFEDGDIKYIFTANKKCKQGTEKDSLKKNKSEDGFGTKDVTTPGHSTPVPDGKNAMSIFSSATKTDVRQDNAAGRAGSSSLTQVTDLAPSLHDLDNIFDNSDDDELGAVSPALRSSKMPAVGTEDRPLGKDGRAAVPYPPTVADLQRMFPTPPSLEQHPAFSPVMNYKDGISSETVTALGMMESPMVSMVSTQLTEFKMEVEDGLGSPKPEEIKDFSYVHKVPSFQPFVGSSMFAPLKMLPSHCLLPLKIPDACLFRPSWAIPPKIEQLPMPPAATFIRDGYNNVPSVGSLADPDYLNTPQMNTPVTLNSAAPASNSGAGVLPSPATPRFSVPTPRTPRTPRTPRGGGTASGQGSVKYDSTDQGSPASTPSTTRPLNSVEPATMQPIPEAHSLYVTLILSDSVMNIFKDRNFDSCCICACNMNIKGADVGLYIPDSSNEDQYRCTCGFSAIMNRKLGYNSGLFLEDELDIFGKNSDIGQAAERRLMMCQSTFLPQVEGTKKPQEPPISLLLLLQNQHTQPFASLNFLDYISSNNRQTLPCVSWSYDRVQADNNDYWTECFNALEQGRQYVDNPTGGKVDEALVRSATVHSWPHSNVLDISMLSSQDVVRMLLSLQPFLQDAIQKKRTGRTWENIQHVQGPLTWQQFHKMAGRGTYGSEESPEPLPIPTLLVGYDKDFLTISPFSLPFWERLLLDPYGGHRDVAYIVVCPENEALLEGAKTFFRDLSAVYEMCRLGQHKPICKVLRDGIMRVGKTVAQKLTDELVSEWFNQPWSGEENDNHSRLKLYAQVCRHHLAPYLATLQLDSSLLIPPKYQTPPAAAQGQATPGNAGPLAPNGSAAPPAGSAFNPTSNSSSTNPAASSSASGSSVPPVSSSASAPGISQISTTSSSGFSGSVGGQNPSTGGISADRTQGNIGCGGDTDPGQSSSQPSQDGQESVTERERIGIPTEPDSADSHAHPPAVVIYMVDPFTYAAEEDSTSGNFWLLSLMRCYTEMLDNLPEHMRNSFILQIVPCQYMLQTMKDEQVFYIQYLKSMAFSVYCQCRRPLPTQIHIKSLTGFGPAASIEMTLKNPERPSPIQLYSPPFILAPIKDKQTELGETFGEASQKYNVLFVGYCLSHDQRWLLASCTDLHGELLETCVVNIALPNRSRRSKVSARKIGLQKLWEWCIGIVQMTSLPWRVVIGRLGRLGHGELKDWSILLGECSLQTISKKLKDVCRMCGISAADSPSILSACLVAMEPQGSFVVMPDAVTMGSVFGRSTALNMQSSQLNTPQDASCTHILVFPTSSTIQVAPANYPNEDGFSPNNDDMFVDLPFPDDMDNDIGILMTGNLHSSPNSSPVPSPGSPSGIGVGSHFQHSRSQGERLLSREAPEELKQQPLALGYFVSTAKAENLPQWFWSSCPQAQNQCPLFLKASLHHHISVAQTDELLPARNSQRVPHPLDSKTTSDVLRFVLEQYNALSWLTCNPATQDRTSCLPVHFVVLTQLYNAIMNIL
UniProt Q86V48: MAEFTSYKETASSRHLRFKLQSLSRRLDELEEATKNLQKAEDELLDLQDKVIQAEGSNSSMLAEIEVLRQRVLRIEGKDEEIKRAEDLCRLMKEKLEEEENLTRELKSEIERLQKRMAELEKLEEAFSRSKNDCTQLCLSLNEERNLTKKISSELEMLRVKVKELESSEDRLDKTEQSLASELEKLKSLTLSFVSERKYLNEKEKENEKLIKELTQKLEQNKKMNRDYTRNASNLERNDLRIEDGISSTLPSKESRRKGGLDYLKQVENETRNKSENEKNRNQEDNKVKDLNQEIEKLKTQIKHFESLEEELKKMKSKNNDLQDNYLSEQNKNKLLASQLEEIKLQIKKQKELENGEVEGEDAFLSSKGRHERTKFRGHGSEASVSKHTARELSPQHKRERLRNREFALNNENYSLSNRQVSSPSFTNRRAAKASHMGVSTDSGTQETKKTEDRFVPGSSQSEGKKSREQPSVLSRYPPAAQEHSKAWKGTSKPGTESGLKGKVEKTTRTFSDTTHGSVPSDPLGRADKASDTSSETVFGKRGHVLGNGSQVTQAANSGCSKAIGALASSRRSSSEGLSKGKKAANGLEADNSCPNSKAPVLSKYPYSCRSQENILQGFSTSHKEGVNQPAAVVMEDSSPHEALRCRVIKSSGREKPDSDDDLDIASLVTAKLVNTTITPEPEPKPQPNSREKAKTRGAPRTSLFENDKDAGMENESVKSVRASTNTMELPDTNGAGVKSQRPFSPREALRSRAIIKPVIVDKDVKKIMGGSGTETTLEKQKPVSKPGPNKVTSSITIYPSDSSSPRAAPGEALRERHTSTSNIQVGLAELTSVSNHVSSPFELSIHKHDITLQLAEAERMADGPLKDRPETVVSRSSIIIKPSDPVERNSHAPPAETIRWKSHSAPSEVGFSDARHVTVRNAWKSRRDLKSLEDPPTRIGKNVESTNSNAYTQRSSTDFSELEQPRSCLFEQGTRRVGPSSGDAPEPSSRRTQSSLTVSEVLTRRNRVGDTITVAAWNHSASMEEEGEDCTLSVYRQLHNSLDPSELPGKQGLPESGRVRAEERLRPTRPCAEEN
UniProt Q7Z3B3: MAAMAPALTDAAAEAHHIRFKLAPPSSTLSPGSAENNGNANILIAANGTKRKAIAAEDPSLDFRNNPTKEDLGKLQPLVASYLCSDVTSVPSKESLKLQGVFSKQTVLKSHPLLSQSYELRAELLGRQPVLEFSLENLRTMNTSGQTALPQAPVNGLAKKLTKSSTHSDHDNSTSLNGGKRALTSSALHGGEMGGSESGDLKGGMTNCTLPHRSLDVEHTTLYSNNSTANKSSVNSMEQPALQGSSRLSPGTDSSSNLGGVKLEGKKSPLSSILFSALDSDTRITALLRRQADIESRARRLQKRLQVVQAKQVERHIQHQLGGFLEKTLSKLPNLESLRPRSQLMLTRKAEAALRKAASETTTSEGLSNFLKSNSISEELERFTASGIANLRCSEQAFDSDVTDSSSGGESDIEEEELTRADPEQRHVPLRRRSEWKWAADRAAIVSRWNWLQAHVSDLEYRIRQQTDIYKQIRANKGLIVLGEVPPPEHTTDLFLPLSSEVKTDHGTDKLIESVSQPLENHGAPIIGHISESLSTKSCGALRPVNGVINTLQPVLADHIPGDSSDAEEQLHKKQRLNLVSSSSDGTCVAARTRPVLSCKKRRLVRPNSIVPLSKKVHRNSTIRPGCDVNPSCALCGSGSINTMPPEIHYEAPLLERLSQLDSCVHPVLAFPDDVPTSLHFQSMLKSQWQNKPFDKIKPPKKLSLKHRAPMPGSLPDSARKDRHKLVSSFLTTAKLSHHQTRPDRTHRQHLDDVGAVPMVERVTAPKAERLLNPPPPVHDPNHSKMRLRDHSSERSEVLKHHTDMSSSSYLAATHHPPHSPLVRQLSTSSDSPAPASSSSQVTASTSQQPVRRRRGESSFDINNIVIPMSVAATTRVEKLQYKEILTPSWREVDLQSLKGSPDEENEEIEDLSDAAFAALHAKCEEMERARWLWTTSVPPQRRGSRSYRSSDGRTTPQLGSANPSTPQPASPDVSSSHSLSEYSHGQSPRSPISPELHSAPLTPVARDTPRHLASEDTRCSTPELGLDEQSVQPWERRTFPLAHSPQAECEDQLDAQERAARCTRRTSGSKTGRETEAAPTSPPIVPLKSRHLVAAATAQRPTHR
UniProt Q86SX6: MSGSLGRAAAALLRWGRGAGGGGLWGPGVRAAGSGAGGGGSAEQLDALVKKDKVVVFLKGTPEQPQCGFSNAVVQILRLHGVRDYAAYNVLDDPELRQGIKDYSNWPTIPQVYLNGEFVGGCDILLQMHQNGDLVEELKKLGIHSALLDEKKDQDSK
UniProt Q8IVS2: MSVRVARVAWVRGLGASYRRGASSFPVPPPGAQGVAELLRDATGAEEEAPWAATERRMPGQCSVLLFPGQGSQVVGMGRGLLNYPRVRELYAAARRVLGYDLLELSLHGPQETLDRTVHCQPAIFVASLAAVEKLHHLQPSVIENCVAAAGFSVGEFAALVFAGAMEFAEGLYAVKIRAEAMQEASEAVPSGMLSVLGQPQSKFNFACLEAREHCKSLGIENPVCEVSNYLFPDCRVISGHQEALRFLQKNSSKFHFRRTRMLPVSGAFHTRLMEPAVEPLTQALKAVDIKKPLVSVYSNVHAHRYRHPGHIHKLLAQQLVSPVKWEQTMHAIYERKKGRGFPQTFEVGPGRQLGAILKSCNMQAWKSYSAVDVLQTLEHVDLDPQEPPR
UniProt Q86XL3: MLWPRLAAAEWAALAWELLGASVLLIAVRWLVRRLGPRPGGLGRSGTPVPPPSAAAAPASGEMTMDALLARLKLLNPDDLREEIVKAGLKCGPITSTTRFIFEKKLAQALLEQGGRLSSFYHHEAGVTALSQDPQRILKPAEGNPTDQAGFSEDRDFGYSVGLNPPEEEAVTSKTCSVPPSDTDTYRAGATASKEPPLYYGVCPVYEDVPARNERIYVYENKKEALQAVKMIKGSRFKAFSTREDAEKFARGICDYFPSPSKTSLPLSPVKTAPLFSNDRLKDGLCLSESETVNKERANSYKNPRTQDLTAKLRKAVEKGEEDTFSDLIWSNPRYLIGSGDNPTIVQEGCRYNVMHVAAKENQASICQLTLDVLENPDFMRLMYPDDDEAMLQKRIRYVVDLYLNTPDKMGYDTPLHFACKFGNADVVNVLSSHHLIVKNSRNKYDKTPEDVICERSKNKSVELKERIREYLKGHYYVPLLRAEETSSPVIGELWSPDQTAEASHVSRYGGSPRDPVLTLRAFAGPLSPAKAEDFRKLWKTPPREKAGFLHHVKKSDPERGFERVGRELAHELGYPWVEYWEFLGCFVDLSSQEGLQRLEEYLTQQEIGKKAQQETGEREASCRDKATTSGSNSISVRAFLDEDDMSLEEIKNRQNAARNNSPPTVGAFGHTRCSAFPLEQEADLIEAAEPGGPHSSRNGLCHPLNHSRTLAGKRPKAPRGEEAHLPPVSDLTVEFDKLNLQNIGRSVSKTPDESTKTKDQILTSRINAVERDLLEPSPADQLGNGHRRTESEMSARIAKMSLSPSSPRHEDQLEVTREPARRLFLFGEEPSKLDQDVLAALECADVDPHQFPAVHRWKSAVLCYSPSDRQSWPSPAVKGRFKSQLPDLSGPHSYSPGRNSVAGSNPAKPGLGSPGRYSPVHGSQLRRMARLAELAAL

Target	log2 ratio of iodoacetamide-alkyne labeling
UniProt Q8IYB1_C16	inactive: 0.36
UniProt Q7RTV0_C11	inactive: -0.0735
MED13L C1204 (UniProt Q71F56)	inactive: 0.301
CAND1 C1007 (UniProt Q86VP6)	inactive: 0.188
MEPCE C429 (UniProt Q7L2J0)	inactive: 0.486
DHX37 C1026 (UniProt Q8IY37)	inactive: 0.317
CYFIP1 C1241 (UniProt Q7L576)	inactive: 0.137
UniProt Q86Y56_C84	inactive: 0.294
UBR2 C1619 (UniProt Q8IWV8)	inactive: 0.0476
SLFN11 C884 (UniProt Q7Z7L1)	inactive: 0.199
SMC5 C881 (UniProt Q8IY18)	inactive: 0.165
UniProt Q86Y56_C409	inactive: 0.492
PARG C397 (UniProt Q86W56)	inactive: 0.64
COPS6 C283 (UniProt Q7L5N1)	inactive: 0.171
LUZP1 C594 (UniProt Q86V48)	active: 1.19
KANSL1 C1020 (UniProt Q7Z3B3)	inactive: 0.445
UniProt Q7RTV0_C46	inactive: 0.211
DDX42 C281 (UniProt Q86XP3)	inactive: 0.45
MRPL10 C180 (UniProt Q7Z7H8)	inactive: 0.204
GLRX5 C67 (UniProt Q86SX6)	inactive: 0.0881
UniProt Q8IVS2_C62	inactive: 0.4
ANKLE2 C844 (UniProt Q86XL3)	inactive: 0.0364
RBBP6 C27 (UniProt Q7Z6E9)	inactive: 0.0842

A portion from further up, for reference:
Target	log2 ratio of iodoacetamide-alkyne labeling
PARG C397 (UniProt Q86W56)	inactive: 0.64
COPS6 C283 (UniProt Q7L5N1)	inactive: 0.171

Reference: the supplement of paper PMC11006884
